Article PMC5059142
Where a chain is given by its changes, count along the chain named. These are yes or no findings as the source states them, for the method shown. Binding seen in cells or lysates may run through a third protein. Some binding calls cover weakened binding; strength is not graded here. Where a sequence is shown, tags or fusion partners need not be part of it.

How the values were obtained:
[1] = target: T1, hTXNIP C247S-flag (human) (UniProt Q9H3M7); experiment: co-IP; TXNIP-V5 or C247S-flag co-expressed with hGLUT2 or hGLUT5; lysis in 0.5% Triton X-100, 0.1% sodium deoxycholate, 150 mM NaCl, 50 mM Tris, pH 7.8; Txnip protein complexes immunoprecipitated with antibodies and Protein A/G agarose beads; immunoblot
T1 sequence: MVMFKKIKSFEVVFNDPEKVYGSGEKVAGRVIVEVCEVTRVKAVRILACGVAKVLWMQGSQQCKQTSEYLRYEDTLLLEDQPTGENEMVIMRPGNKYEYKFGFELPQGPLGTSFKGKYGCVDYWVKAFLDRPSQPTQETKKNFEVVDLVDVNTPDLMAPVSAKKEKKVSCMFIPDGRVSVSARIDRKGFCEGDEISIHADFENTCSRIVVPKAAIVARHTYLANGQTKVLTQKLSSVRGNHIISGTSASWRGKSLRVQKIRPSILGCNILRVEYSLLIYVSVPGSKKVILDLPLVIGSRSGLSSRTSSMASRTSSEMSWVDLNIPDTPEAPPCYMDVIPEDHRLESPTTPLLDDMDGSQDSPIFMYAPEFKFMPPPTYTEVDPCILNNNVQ

[2] = target: T2, hTXNIP-V5 (human thioredoxin-interacting protein) (human) (UniProt Q9H3M7); experiment: as above
T2 sequence: T1 sequence with S247C

binding [1]: binds
binding [2]: binds
B1: hGLUT5 (human glucose transporter 5) (protein, UniProt P22732 1-501)
chain: MEQQDQSMKEGRLTLVLALATLIAAFGSSFQYGYNVAAVNSPALLMQQFYNETYYGRTGEFMEDFPLTLLWSVTVSMFPFGGFIGSLLVGPLVNKFGRKGALLFNNIFSIVPAILMGCSRVATSFELIIISRLLVGICAGVSSNVVPMYLGELAPKNLRGALGVVPQLFITVGILVAQIFGLRNLLANVDGWPILLGLTGVPAALQLLLLPFFPESPRYLLIQKKDEAAAKKALQTLRGWDSVDREVAEIRQEDEAEKAAGFISVLKLFRMRSLRWQLLSIIVLMGGQQLSGVNAIYYYADQIYLSAGVPEEHVQYVTAGTGAVNVVMTFCAVFVVELLGRRLLLLLGFSICLIACCVLTAALALQDTVSWMPYISIVCVISYVIGHALGPSPIPALLITEIFLQSSRPSAFMVGGSVHWLSNFTVGLIFPFIQEGLGPYSFIVFAVICLLTTIYIFLIVPETKAKTFIEINQIFTKMNKVSEVYPEKEELKELPPVTSEQ
